Laboratory results as given in the supplement of paper PMC9744312.
Where a name gives a salt, the structure may show the parent alone. Some of the results follow. This is a noisy data set.

system: Peyronie's disease tunica albuginea primary fibroblasts; assay: inhibition of TGF-beta1-induced alpha-SMA expression (myofibroblast transformation), relative to TGF-beta1-only and untreated controls; higher = stronger inhibition of myofibroblast transformation; settings: 10 µM; TGF-beta1 10 ng/mL; 72 h

Row | Structure (SMILES) | inhibition of TGF-beta1-induced alpha-SMA expression [%]
1 | Cc1ccc(/C(=C\CN2CCCC2)c2ccccn2)cc1 [Triprolidine Hydrochloride] | 15.1
2 | CC(C)(O/N=C(\C(=O)N[C@@H]1C(=O)N2C(C(=O)[O-])=C(C[n+]3ccccc3)CS[C@H]12)c1csc(N)n1)C(=O)O [Ceftazidime] | 2.74
3 | CC(C)(O/N=C(\C(=O)N[C@@H]1C(=O)N2C(C(=O)[O-])=C(C[n+]3ccccc3)CS[C@H]12)c1csc(N)n1)C(=O)O [Ceftazidime Pentahydrate] | 15.5
4 | CC(C)=CCC/C(C)=C/CC/C(C)=C/CCC(=O)OC/C=C(\C)CCC=C(C)C [Gefarnate] | 12.2
5 | O=C(N/N=C/c1ccc([N+](=O)[O-])o1)c1ccc(O)cc1 [Nifuroxazide] | -23.7
6 | CCOc1cc2ncc(C#N)c(Nc3ccc(OCc4ccccn4)c(Cl)c3)c2cc1NC(=O)/C=C/CN(C)C [Neratinib (HKI-272)] | 27
7 | Cc1cn([C@@H]2C[C@@H](O)[C@H](CO)O2)c(=O)[nH]c1=O [Telbivudine] | -0.476
8 | NC(=O)c1ncn([C@@H]2O[C@H](CO)[C@@H](O)[C@H]2O)c1O [Mizoribine] | 15.3
9 | CC(=O)Nc1c(I)c(NC(C)=O)c(I)c(C(=O)O)c1I [Diatrizoate sodium] | 60.2
10 | CCc1cc(C(N)=S)ccn1 [Ethionamide] | -21.1
11 | N[C@H](Cc1ccccc1)C(=O)O [D-Phenylalanine] | 15.3
12 | O=c1c(-c2ccc(O)cc2)coc2cc(O)cc(O)c12 [Genistein] | 2.56
13 | COC(=O)[C@H]1[C@H]2C[C@@H]3c4[nH]c5cc(OC)ccc5c4CCN3C[C@H]2C[C@@H](OC(=O)c2cc(OC)c(OC)c(OC)c2)[C@@H]1OC [Reserpine] | 8.7
14 | CNC(=C[N+](=O)[O-])NCCSCc1ccc(CN(C)C)o1 [Ranitidine] | 36
15 | CNC(=C[N+](=O)[O-])NCCSCc1ccc(CN(C)C)o1 [Ranitidine Hydrochloride] | -18.4
16 | CC(C)C[C@H](NC(=O)CNC(=O)c1cc(Cl)ccc1Cl)B(O)O [Ixazomib (MLN2238)] | > 100
17 | CC(C)(CO)[C@@H](O)C(=O)NCCCO [D panthenol] | 0.846
18 | N#C[C@@H]1CCCN1C(=O)CNC12CC3CC(CC(O)(C3)C1)C2 [Vildagliptin (LAF-237)] | 11.2
19 | CCC(=O)NS(=O)(=O)c1ccc(-c2c(-c3ccccc3)noc2C)cc1 [Parecoxib] | 17.3
20 | CCC(=O)NS(=O)(=O)c1ccc(-c2c(-c3ccccc3)noc2C)cc1 [Parecoxib Sodium] | 42.7
21 | N[C@@H]1CN(c2c(F)cc3c(=O)c(C(=O)O)cn([C@@H]4C[C@@H]4F)c3c2Cl)CC12CC2 [Sitafloxacin Hydrate] | 19.5
22 | CNC[C@H](O)c1cccc(O)c1 [Phenylephrine HCl] | 36.3
23 | CO[C@H]1C[C@@H]2CC[C@@H](C)[C@@](O)(O2)C(=O)C(=O)N2CCCC[C@H]2C(=O)O[C@H]([C@H](C)C[C@@H]2CC[C@@H](O)[C@H](OC)C2)CC(=O)[C@H](C)/C=C(\C)[C@@H](O)[C@@H](OC)C(=O)[C@H](C)C[C@H](C)/C=C/C=C/C=C/1C [Rapamycin (Sirolimus)] | -49.4
24 | NS(=O)(=O)c1ccc(C(=O)O)cc1 [Carzenide] | -22.3
25 | Cc1nc(C)c(Cl)c(O)c1Cl [Clopidol] | 26.1

At a glance, some entries already given.
Row | Structure (SMILES) | inhibition of TGF-beta1-induced alpha-SMA expression [%]
15 | CNC(=C[N+](=O)[O-])NCCSCc1ccc(CN(C)C)o1 [Ranitidine Hydrochloride] | -18.4
16 | CC(C)C[C@H](NC(=O)CNC(=O)c1cc(Cl)ccc1Cl)B(O)O [Ixazomib (MLN2238)] | > 100

Continuation:

Row | Structure (SMILES) | inhibition of TGF-beta1-induced alpha-SMA expression [%]
26 | O=C(O)P(=O)(O)O [Foscarnet Sodium] | 25.4
27 | N=C(N)NCCC[C@@H](NC(=O)[C@@H]1CCCN1C(=O)[C@@H]1CSSCCC(=O)N[C@@H](Cc2ccc(O)cc2)C(=O)N[C@@H](Cc2ccccc2)C(=O)N[C@@H](CCC(N)=O)C(=O)N[C@@H](CC(N)=O)C(=O)N1)C(=O)NCC(N)=O [Desmopressin Acetate] | -1.26
28 | CC(C)NCC(O)c1ccc(NS(C)(=O)=O)cc1 (stereo not drawn) [Sotalol HCl] | 15.2
29 | C#C[C@]1(O)CC[C@H]2[C@@H]3CCc4cc(OC)ccc4[C@H]3CC[C@@]21C [Mestranol] | -3.75
30 | C1=N/C2=N/c3ccc(OCCN4CCCC4)c(c3)COC/C=C/COCc3cccc(c3)C(=C1)N2 [Pacritinib (SB1518)] | > 100
31 | COc1ccc2cccc(CCNC(C)=O)c2c1 [Agomelatine] | -9.25
32 | Cc1[nH]c(/C=C2\C(=O)Nc3ccccc32)c(C)c1CCC(=O)O [Orantinib (TSU-68, SU6668)] | -28.2
33 | CC(=O)N1CCN(c2ccc(OCC3COC(Cn4ccnc4)(c4ccc(Cl)cc4Cl)O3)cc2)CC1 (stereo not drawn) [Ketoconazole] | 14.2
34 | CN(CCOc1ccc(NS(C)(=O)=O)cc1)CCc1ccc(NS(C)(=O)=O)cc1 [Dofetilide] | 1.92
35 | CC(C)NC[C@H](O)COc1ccc(CCOCC2CC2)cc1 [Levobetaxolol HCl] | 20.3
36 | CCCCCCCC(=O)N[C@H](CN1CCCC1)[C@H](O)c1ccc2c(c1)OCCO2 [Eliglustat] | 28.3
37 | COC(=O)C1=C(C)NC(C)=C(C(=O)OC)C1c1ccccc1[N+](=O)[O-] [Nifedipine] | 3.51
38 | Clc1ccccc1CN1CCc2sccc2C1 [Ticlopidine HCl] | 4.77
39 | Nc1ccc(O)c(C(=O)O)c1 [Mesalamine] | -9.66
40 | Cc1cc(NC(=O)C2=C(O)c3ccccc3S(=O)(=O)N2C)no1 [Isoxicam] | 30.6
41 | CN(C)CCCN1c2ccccc2CCc2ccc(Cl)cc21 [Clomipramine HCl] | 47.2
42 | C#C[C@]1(OC(C)=O)CC[C@H]2[C@@H]3CCC4=C[C@@H](OC(C)=O)CC[C@@H]4[C@H]3CC[C@@]21C [Ethynodiol diacetate] | 31.7
43 | Nc1ccc(S(=O)(=O)Nc2ncccn2)cc1 [Sulfadiazine] | 16
44 | Nc1ccc(S(=O)(=O)Nc2ncccn2)cc1 [Sodium sulfadiazine] | 32.2
45 | C=CCc1cc(OC)c(O)c(C(=O)NCCO)c1 [Alibendol] | 11.8
46 | CO[C@@]1(NC(=O)C(C(=O)O)c2ccc(O)cc2)C(=O)N2C(C(=O)O)=C(CSc3nnnn3C)CO[C@@H]21 (stereo partly drawn) [Latamoxef sodium] | 56.9
47 | C#C[C@]1(O)CC[C@H]2[C@@H]3CCC4=CC(=O)CC[C@@H]4[C@H]3CC[C@@]21C [Norethindrone] | 23.1
48 | CC(=O)OC/C=C(C)/C=C/C=C(C)/C=C/C1=C(C)CCCC1(C)C [Vitamin A Acetate] | 23.9
49 | NS(=O)(=O)c1cc2c(cc1Cl)N=C(CSCc1ccccc1)NS2(=O)=O [Benzthiazide] | 14.5
50 | CCCCCCCCCCCCCCCCCC(=O)O [Stearic acid] | -9.56

Row | Structure (SMILES) | inhibition of TGF-beta1-induced alpha-SMA expression [%]
51 | CC(=O)Oc1cc(C(F)(F)F)ccc1C(=O)O [Triflusal] | 22.8
52 | CNC(=O)c1ccc2cc([C@@]3(O)CCn4cncc43)ccc2c1 [TAK-700 (Orteronel)] | 57.4
53 | C[C@]12C=CC(=O)C=C1CC[C@@H]1[C@@H]2[C@@H](O)C[C@@]2(C)[C@H]1CC[C@]2(O)C(=O)CO [Prednisolone] | 34.7
54 | O=c1[nH]cc(F)c(=O)[nH]1 [Fluorouracil (5-Fluoracil, 5-FU)] | -9.86
55 | CS(=O)(=O)c1ccc([C@@H](O)[C@@H](CO)NC(=O)C(Cl)Cl)cc1 [Thiamphenicol] | -12.1
56 | CO/N=C(\C(=O)N[C@@H]1C(=O)N2C(C(=O)[O-])=C(C[n+]3ccn4ncccc43)CS[C@H]12)c1nsc(N)n1 [Cefozopran hydrochloride] | 49.9
57 | Cc1cncc(CN2CCC(=C3c4ccc(Cl)cc4CCc4cccnc43)CC2)c1 [Rupatadine Fumarate] | 40.2
58 | C[C@@H](c1ncncc1F)[C@](O)(Cn1cncn1)c1ccc(F)cc1F [Voriconazole] | 26.5
59 | O=C(Nc1cc(Cl)cc(Cl)c1O)c1c(O)c(Cl)cc(Cl)c1Cl [Oxyclozanide] | 19.1
60 | O=C(O)Cc1ccccc1Nc1c(Cl)cccc1Cl [Diclofenac Diethylamine] | 28.7
61 | O=C(O)Cc1ccccc1Nc1c(Cl)cccc1Cl [Diclofenac Sodium] | 21
62 | O=C(O)Cc1ccccc1Nc1c(Cl)cccc1Cl [Diclofenac Potassium] | 24.1
63 | C[C@@H]1CC(=O)NN=C1c1ccc(NN=C(C#N)C#N)cc1 [Levosimendan] | -0.651
64 | Oc1c(Br)cc(Br)c2cccnc12 [Broxyquinoline] | -16.6
65 | CC(C)C[C@H](NC(=O)[C@H](Cc1ccccc1)NC(=O)c1cnccn1)B(O)O [Bortezomib (PS-341)] | > 100
66 | COc1ccc(CC(C)NCC(O)c2ccc(O)c(NC=O)c2)cc1 (stereo not drawn) [Formoterol Hemifumarate] | 41.9
67 | CS(=O)(=O)c1ccc(C(=O)Nc2ccc(Cl)c(-c3ccccn3)c2)c(Cl)c1 [Vismodegib (GDC-0449)] | 7.75
68 | CNC[C@H](O)[C@@H](O)[C@H](O)[C@H](O)CO.CNC[C@H](O)[C@@H](O)[C@H](O)[C@H](O)CO.O=C([O-])CN(CCN(CC(=O)[O-])CC(=O)O)CCN(CC(=O)[O-])CC(=O)O.[Gd+3] [Gadopentetate Dimeglumine] | 88.6
69 | CCOC(=O)N1CCC(=C2c3ccc(Cl)cc3CCc3cccnc32)CC1 [Loratadine] | 29.6
70 | Nc1nc(F)nc2c1ncn2[C@@H]1O[C@H](COP(=O)(O)O)[C@@H](O)[C@@H]1O [Fludarabine Phosphate] | -8.51
71 | COC(=O)[C@H](c1ccccc1Cl)N1CCc2sccc2C1 [Clopidogrel] | 37.5
72 | COCCCC/C(=N\OCCN)c1ccc(C(F)(F)F)cc1 [Fluvoxamine maleate] | 25.9
73 | NC(=O)N1CCC(CC(=O)N2CCC([C@H]3c4ncc(Br)cc4CCc4cc(Cl)cc(Br)c43)CC2)CC1 [Lonafarnib] | 6.37
